In all, about 300,000 compounds went through this assay and about 5,200 (1.7%) were called active. The shares of active, inactive and inconclusive entries below differ from those in the screen.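 How the source made its calls: active means mean replicate activation of at least 50% with a set share of replicates each reaching 50%; inconclusive means only one of those two conditions met; inactive means mean below 50% and too few replicates reaching it.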
assay: HSF-1 activators, primary screen, NIH3T3-HGL cells, MG132 stress, luminescence, single point (AID 504408); conditions: NIH3T3-HGL HSF-1 luciferase reporter, MG132, 8 h; at 9 µM; active compounds read high; 100% = twice DMSO control signal;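 further: 0% = median of the neutral control wells and 100% = twice that signal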

activation, inactive:
Oc1ccccc1C=NN=Cc1ccccc1Cl -57.5%
Cc1c(C(=O)c2no[n+]([O-])c2C(=O)c2cnn(C)c2C)cnn1C -94.6%
CC(NC(=S)NC1CCCCC1)c1ccc(C(C)(C)C)cc1 (centres undefined) 11%
Cc1cccc(Nc2nc(N)c([N+](=O)[O-])c(NCc3ccco3)n2)c1 -10.4%
Cc1cccc(NC(=O)C2(C)CC3c4ccccc4C2c2ccccc23)c1C (centres undefined) 0.874%
Cc1cc(C(=O)N2CCCC(N3CCN(c4ccc(F)cc4)CC3)C2)c(C)o1 (centres undefined) 2.6%
O=C(CSc1nc(-c2ccccc2)nc2c1Cc1ccccc1O2)Nc1ccccc1 -2.7%
Cc1cc(NC(=O)Nc2cccc(Cl)c2)n(-c2ccccn2)n1 16.7%
N#C/C(=C\c1ccc(-c2ccccc2C(=O)O)o1)c1nc2ccccc2[nH]1 -6.37%
CN1CCN(CC(C)(C)NS(=O)(=O)c2ccc(Cl)cc2)CC1 -17.6%
Clc1ccc(-c2csc(N3CCSCC3)n2)cc1 6.27%
COc1cc(C(=O)Nc2cc(C)c(OCC(=O)N3CCOCC3)c(C)c2)cc(OC)c1OC -8.9%
CCC(=O)NC(c1ccc(Cl)cc1Cl)c1ccc2cccnc2c1O (centres undefined) -8.48%
CC1(C)CC2(CC(C)(C)N1)OC(=O)N1CCc3ccccc3C12C (centres undefined) 1.57%
Cc1ccc(/C=N/OC(=O)c2nn(C)cc2Cl)cc1 -1.69%
CN1C(=O)c2cccc3c(S(=O)(=O)N(C)C)ccc1c23 21.2%
CCOC(=O)C1=C(N)Oc2cc(C)n(C)c(=O)c2C1c1ccncc1 (centres undefined) 3.98%
Cc1c(-c2ccc(/C=N/NC(=O)C(=O)Nc3ccccc3F)o2)cccc1[N+](=O)[O-] 2.52%
COc1ccc(OCC(=O)NC2CCCN(Cc3ccc(Cl)cc3)C2)cc1 (centres undefined) 29.7%
O=C(Nc1nnc(-c2ccc(F)cc2)s1)c1ccco1 38.5%
O=S(=O)(c1ccc(Cl)cc1)N1CCN(C(=S)Nc2ccc(F)c(Cl)c2)CC1 7.23%
CC(NC(=O)CN1CCc2ccccc21)c1ccccc1 (centres undefined) 6.62%
Clc1ccc(CNc2ccccn2)cc1 4.88%
Cc1ccccc1CO/N=C/c1[nH]ncc1Br -88.7%
CCCCCn1c(=O)[nH]c2cc(C(=O)NCCCN3CCCCC3CC)ccc2c1=O (centres undefined) 0.979%
Nc1ccc(C(=O)OCc2nc3cc4ccccc4cc3[nH]2)cc1 11.9%
O=C(O)c1ccc(N/N=C/c2cccc(C(F)(F)F)c2)cc1 14.1%
CCOc1ccc(NC(=O)CCN2C(=S)NC(C)(C)CC2C)cc1 (centres undefined) 7.57%
O=C(O)c1ccc(/C=C(\c2nc3ccccc3[nH]2)c2nc3ccccc3s2)cc1 22.1%
Cn1c(=O)cc(OCC(=O)NC2CCCCC2)c2ccccc21 1.67%
Cn1c2ccccc2c2cc(/C=N/NC(=O)c3ccc(O)cc3O)ccc21 13.1%
O=C(Nc1nc(-c2ccccn2)cs1)c1ccco1 17.2%

Reprinted from the results shown (5 entries):
activation, inactive:
CCCCCn1c(=O)[nH]c2cc(C(=O)NCCCN3CCCCC3CC)ccc2c1=O (centres undefined) 0.979%
Nc1ccc(C(=O)OCc2nc3cc4ccccc4cc3[nH]2)cc1 11.9%
O=C(O)c1ccc(N/N=C/c2cccc(C(F)(F)F)c2)cc1 14.1%
CCOc1ccc(NC(=O)CCN2C(=S)NC(C)(C)CC2C)cc1 (centres undefined) 7.57%
O=C(O)c1ccc(/C=C(\c2nc3ccccc3[nH]2)c2nc3ccccc3s2)cc1 22.1%

Following part.

activation, inconclusive:
Cc1onc(-c2ccccc2)c1C(=O)OCc1nnc(-c2ccccc2)o1 55.3%
Cc1cccc(-c2noc(CN(C(=O)C(c3ccccc3)c3ccccc3)C(C)C)n2)c1 54%
Cc1ccc(S(=O)(=O)N(CC(=O)NCc2ccco2)Cc2ccccc2F)cc1 53%
Cc1cc(NC(=O)COC(=O)[C@H](Cc2c[nH]c3ccccc23)NC(=O)c2ccc(F)cc2)no1 54.8%
Cc1ccc(-c2ccc(CCC(=O)O)n2C(C)C)cc1 50%
Cn1c(CNC(=O)c2ccco2)nnc1SCC(=O)c1ccc(Br)cc1 50.3%
COc1ccc2cc(C(=O)/C=C/c3cc(OC)c(O)c(OC)c3)ccc2c1 50.9%
Cc1ccnc(NC(=O)/C=C/c2ccccc2[N+](=O)[O-])c1 52.9%
CC(=O)c1ccc(OCc2ccc(C(=O)c3ccccc3)cc2)cc1 53.3%
COc1cc(CNCC(O)c2ccccc2)ccc1OCc1ccc(Cl)nc1 (centres undefined) 51%
CCN(CC)S(=O)(=O)c1ccc(OC)c(NC(=O)c2cc3c(=O)n4ccccc4nc3s2)c1 50.5%
COc1cccc(Nc2ncnc3sccc23)c1 56.2%
O=C(N/N=C/c1ccc([N+](=O)[O-])cc1)c1c[nH]c2ccccc12 52%
Cc1nc2cc(NC(=O)c3ccc(Cl)cc3)ccc2n1C 50.3%
CCn1c(=O)n(CC)c2cc(S(=O)(=O)Nc3ccccc3C)c(C)cc21 51.2%
CC(=O)c1cccc(NC(=O)c2cc(C(C)C)on2)c1 51.9%
N/C(=N\OC(=O)c1ccccc1Br)c1ccc([N+](=O)[O-])cc1 52.8%
COC(=O)N1C(=O)[C@@](c2ccccc2)(C2CCCC2)N1C(=O)OC 51.7%
COc1ccc(CC(=O)N2CCN=C2SCc2ccc([N+](=O)[O-])cc2)cc1 51.2%
CCOC(=O)c1cc(C#N)c(SCc2ccc(C#N)cc2)nc1C 55.5%
Cc1ccc(Nc2cccccc2=O)cc1 51.6%
O=C(CSc1c2c(nc3cc(Cl)ccc13)CCCC2)NCc1ccco1 53.4%
Cc1ccc(C)c(/C=C/C(=O)c2ccccc(=O)c2O)c1 50.1%
Clc1ccc(OCCSc2ncccn2)c(Br)c1 54.3%
O=C(CSc1nc(O)cc(=O)n1-c1ccccc1)Nc1ccc2c3c(cccc13)CC2 52.2%
C=Cc1ncc(OC)c2c1[nH]c1ccccc12 53%
O=C(Cc1ccc(Cl)cc1)Nc1ccc(NC(=O)c2ccccc2)cc1 51.1%
O=C(/C=C/c1ccco1)N1CCc2ccccc21 57.7%
O=C(CSc1ccccn1)N/N=C/c1ccccc1[N+](=O)[O-] 52%
CCOC(=O)c1sc2nc(CC(=O)OC)nc(NCc3ccco3)c2c1C 50%
COc1ccc(-c2cc(C(F)(F)F)nc(SCC(=O)N(C)Cc3cnn(C)c3C)n2)cc1OC 58.6%
CN1CCC(=NNC(=O)c2ccc(N(Cc3ccccc3Cl)S(C)(=O)=O)cc2)CC1 51.4%
N/C(=N\OC(=O)c1cccs1)c1cccc([N+](=O)[O-])c1 52.4%
COc1cc(NC(=O)c2cc3sccc3n2C)cc(OC)c1 53.7%
Cc1nc(Cl)sc1C(=O)Nc1cccc(Cl)c1 51.5%
CCc1cc2c(=O)c(-c3cnn(-c4ccccc4)c3)c(C)oc2c(CN2CCCCC2)c1O 50.8%
O=C(Nc1ccn(Cc2ccccc2)n1)c1ccc(F)cc1 50.2%
CCOc1ccccc1N1CCN(Cc2cccc(OC)c2O)CC1 50.4%
Cc1ccc(S(=O)(=O)N2CCN(C(=O)COc3ccc(NC(=O)c4ccco4)cc3)CC2)cc1 51.6%
COc1ccc2ccccc2c1CNCCN1CCOCC1 55.6%
N#Cc1nc(-c2ccco2)oc1N1CCOCC1 60.2%
COC(=O)[C@@H](NC(=O)NC1CCCc2ccccc21)C(C)C (some centres undefined) 51.7%
CCn1cc(Br)c(-c2nc3ccccc3c(=O)n2N)n1 50.2%
O=C(CC12CCC(CC1)C2)NCc1ccc2c(c1)OCO2 97.2%
O=[N+]([O-])c1ccccc1-c1ccc(C(=S)N2CCCC2)o1 55.1%
COc1ccc(-c2nc3ccccc3o2)cc1OC 59.4%
O=[N+]([O-])c1cccn2cc(-c3ccc(Br)cc3)nc12 54.5%
O=C(N/N=C/c1ccncc1)C1CC1(c1ccccc1)c1ccccc1 (centres undefined) 51.4%
COc1ccc(CCn2nc(C)c([N+](=O)[O-])c2C)cc1 51.3%

activation, active:
O=c1[nH]c2ccccc2nc1-c1ccc(Cl)cc1 59.1%
Cc1ccc(N/N=C2\CS(=O)(=O)N(C)c3ccsc32)cc1 87.5%
COc1cc2c(cc1OC)C(C)N(S(=O)(=O)c1cnc(Cl)c(Cl)c1)CC2 (centres undefined) 227%
O/N=C(/CCc1ccccc1)c1ccc2c(c1)OCCO2 55.2%
CCOC(=O)c1c(NC(=O)CSc2nc3cc(Cl)ccc3c(=O)n2Cc2ccco2)sc(C(=O)N(C)C)c1C 146%
C/C(=N\OC(=O)c1ccc(F)cc1)c1ccc(F)c(F)c1 53.7%
O=C(Nc1nc2c(s1)CCCC2)c1ccc(Br)s1 59.5%
COc1cc(OC)c(OC)cc1/C=N/Nc1nc2ccccc2[nH]1 267%
O=C(NC(CO)(CO)CO)c1coc(=O)c(Br)c1 65.2%
CC(=O)N(Cc1ccco1)c1nc(C(=O)Nc2ccc(Cl)cc2)c(C)s1 53%
Cc1cnc(NC(=O)CSc2nnc(-c3ccccc3)o2)s1 61.2%
CCC(C)Nc1nc(Cl)nc(N(C#N)CN2C(=O)c3ccccc3S2(=O)=O)n1 (centres undefined) 75.6%
Brc1cnc2nc(SC/C=C/c3ccccc3)[nH]c2c1 62.2%
